# No constants are given. Whether binding was seen depends on the method and setting. In cells and extracts the contact can be indirect. Some binding calls cover weakened binding; strength is not graded here.
# The chains behind the UniProt entries cited, without tags or fusion partners.
# UniProt P25106: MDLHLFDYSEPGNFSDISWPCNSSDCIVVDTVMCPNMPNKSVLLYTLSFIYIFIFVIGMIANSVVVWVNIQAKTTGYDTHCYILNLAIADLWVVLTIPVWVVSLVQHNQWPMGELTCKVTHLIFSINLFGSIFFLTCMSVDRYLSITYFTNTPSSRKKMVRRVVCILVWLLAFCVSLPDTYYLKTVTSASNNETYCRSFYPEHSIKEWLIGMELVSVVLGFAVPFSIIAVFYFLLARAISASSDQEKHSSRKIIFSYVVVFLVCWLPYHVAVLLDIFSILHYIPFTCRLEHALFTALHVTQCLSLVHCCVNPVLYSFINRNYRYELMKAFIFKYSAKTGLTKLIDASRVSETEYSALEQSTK
# Molecular target: T1, Macrophage migration inhibitory factor (human (endogenous in H1 and H9 human ESCs)) (UniProt P14174)
# T1 sequence: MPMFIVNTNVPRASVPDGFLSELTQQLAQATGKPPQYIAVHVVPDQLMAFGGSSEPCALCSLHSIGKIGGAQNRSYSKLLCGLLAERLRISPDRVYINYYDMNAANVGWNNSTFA
# Test: co-IP; endogenous proteins in human ESC lysate (IP lysis buffer); 2 ug antibody (MIF antibody, or CXCR7 antibody for the reverse IP) with protein A/G beads overnight at 4°C; washed three times; Western blot; IgG as negative control
substance,measurement,value
CXCR7 (from UniProt P25106 1-362) (receptor),binding,binds
